Data on one substance can be found in paper doi:10.1101/2025.09.30.679455.

Sequences of proteins named here, by UniProt entry; tags and fusion partners are left off.
UniProt Q5THJ4: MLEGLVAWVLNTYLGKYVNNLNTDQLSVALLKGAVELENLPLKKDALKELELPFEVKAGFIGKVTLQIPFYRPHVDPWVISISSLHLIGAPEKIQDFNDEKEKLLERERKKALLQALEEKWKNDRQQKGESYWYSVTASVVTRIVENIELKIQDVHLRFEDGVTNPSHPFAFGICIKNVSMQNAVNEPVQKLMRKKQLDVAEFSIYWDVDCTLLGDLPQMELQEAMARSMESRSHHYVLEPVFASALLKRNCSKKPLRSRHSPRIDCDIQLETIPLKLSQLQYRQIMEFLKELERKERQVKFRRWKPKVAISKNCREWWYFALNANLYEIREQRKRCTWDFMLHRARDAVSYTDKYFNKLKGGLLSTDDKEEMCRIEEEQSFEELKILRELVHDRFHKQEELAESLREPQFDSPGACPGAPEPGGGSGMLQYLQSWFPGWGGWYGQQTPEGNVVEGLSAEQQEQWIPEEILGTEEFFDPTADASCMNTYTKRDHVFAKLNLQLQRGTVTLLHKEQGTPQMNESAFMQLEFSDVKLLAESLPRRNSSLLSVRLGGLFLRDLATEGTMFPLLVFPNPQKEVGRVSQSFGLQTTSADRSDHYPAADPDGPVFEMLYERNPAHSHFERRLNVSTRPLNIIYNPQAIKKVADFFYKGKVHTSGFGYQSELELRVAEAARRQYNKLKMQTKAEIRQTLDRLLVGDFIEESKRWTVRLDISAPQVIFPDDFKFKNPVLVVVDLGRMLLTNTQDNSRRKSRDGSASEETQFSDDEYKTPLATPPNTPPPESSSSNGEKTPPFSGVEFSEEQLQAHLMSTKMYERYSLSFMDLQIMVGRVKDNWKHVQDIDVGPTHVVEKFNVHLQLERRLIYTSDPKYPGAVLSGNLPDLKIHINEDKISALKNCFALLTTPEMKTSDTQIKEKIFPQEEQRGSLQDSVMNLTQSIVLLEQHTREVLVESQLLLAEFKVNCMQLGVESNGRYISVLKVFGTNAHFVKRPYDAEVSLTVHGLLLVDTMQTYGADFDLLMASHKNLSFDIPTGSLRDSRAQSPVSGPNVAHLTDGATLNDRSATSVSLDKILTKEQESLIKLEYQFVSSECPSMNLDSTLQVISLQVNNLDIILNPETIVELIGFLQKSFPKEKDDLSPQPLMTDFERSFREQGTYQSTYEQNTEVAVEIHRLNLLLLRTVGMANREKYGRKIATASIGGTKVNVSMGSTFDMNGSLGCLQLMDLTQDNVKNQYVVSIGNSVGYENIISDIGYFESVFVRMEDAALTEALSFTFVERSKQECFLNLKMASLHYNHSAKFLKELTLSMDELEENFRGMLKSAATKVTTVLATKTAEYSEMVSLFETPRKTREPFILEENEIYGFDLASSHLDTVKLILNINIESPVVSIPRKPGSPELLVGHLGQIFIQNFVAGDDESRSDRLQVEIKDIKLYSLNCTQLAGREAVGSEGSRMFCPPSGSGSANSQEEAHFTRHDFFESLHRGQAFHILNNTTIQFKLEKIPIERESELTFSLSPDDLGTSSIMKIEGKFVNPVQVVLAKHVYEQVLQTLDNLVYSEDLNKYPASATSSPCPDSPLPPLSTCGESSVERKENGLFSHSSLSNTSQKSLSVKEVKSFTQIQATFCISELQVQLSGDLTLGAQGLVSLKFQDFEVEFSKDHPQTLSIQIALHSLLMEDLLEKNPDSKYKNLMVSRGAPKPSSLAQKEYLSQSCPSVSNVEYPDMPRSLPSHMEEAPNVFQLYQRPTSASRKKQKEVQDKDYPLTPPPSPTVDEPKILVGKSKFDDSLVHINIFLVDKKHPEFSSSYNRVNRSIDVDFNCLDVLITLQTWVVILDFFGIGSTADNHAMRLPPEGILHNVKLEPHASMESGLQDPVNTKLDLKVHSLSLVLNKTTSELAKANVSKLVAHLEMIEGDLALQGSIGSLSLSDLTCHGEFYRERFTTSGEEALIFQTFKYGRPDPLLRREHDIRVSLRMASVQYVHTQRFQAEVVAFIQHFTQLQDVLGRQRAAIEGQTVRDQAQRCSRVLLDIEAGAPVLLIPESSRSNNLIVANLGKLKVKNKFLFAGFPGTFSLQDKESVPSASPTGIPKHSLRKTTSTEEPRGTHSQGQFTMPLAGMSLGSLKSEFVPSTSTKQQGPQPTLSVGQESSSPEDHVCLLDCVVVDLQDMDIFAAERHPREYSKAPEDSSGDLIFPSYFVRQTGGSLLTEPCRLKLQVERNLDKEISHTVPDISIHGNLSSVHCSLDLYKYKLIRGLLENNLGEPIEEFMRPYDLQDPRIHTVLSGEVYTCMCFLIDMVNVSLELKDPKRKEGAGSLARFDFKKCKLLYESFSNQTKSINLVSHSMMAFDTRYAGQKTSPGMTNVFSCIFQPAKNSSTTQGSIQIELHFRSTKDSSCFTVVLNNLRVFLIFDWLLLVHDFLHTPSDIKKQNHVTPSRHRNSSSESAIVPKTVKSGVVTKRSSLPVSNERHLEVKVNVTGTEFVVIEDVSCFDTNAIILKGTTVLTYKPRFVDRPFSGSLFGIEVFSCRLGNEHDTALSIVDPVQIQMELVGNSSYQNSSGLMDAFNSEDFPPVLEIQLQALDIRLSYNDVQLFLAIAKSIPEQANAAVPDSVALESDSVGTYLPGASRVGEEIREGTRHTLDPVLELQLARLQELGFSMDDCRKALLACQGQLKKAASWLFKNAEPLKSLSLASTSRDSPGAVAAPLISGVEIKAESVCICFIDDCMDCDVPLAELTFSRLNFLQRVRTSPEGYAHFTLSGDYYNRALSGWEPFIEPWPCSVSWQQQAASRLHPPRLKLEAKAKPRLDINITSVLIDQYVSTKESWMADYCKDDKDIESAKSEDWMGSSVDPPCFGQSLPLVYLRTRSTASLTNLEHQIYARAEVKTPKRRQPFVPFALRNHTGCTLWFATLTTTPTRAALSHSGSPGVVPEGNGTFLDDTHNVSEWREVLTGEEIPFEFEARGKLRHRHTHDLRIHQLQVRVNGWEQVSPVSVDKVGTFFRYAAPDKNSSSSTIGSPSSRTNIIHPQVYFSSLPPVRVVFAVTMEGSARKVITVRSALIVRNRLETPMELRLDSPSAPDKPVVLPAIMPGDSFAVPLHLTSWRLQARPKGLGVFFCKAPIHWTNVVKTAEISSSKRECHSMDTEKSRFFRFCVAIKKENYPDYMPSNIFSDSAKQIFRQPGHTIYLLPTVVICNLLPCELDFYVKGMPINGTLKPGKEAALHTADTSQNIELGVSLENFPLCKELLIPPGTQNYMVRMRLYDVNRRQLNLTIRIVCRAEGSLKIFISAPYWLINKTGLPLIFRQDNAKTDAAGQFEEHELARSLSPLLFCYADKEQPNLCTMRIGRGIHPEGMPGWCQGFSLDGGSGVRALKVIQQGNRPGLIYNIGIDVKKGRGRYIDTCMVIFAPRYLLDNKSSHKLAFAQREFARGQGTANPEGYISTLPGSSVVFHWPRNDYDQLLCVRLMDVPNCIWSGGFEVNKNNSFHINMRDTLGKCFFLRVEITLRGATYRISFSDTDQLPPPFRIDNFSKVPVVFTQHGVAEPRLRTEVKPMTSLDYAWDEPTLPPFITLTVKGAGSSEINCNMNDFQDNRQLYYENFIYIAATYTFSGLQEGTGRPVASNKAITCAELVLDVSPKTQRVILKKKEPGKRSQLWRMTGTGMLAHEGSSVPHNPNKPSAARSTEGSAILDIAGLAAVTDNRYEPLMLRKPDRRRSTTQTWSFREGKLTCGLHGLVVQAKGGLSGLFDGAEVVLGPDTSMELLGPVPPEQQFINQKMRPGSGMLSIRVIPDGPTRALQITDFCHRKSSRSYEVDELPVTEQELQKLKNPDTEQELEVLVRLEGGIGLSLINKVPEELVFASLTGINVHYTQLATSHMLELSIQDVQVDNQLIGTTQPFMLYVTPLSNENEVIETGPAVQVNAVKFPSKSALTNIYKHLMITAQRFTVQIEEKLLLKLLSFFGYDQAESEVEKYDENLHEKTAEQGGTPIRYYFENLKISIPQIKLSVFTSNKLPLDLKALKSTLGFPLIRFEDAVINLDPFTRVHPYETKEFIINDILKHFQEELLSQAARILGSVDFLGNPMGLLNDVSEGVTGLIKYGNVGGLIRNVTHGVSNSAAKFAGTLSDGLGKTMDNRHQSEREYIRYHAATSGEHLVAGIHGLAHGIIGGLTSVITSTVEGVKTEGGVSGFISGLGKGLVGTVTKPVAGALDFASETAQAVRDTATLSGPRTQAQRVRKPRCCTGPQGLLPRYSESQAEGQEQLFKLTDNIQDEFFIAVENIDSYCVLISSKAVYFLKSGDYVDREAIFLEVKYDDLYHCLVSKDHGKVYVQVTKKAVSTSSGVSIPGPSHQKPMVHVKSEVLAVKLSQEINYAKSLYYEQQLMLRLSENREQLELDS
UniProt Q14318: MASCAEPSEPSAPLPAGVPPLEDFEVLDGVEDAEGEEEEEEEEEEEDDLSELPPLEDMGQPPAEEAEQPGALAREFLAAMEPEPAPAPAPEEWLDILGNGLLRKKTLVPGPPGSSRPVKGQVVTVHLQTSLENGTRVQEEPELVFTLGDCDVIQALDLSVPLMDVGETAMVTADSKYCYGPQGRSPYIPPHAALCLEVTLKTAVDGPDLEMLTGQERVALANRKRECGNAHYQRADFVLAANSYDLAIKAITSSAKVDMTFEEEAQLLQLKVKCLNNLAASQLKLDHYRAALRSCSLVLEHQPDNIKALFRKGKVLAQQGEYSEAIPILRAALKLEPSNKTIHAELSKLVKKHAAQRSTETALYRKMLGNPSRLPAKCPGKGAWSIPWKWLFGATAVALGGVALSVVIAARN

For one experiment, the target named is BLTP2 (UniProt Q14667). In words: co-IP.
A further experiment deals with VPS13D (UniProt Q5THJ4). As to the kind of experiment: co-IP.

Results are given in words; binding and its absence hold for the method and conditions named. Binding seen in cells or lysates may run through a third protein.

For the substance “endogenous FKBP8 (from UniProt Q14318 1-412)”, the binding result with BLTP2 and with VPS13D was “no binding” throughout.
